Reference: PubChem BioAssay AID743266 (National Center for Advancing Translational Sciences (NCATS), 2014)
Out of some 410,000 compounds screened, about 310 (0.076%) were called active. This list was built around the results that the source calls inconclusive (neither active nor inactive); the mix of calls is not that of the screen. Calls come from the whole dose curve; as a rule, active = well fitted activation curve with a large enough effect; inconclusive = small, poorly fitted or top-dose-only effect, or another doubt; inactive = no such curve, though single readings can be large or run the other way. Potencies beside an inconclusive call are fits to weak or partial responses and may not hold up.

Chains of the proteins cited; added tags and fusions are not shown. Lines headed by an entry give the natural chain unless they say otherwise; changes in a name come on top.
UniProt Q03431: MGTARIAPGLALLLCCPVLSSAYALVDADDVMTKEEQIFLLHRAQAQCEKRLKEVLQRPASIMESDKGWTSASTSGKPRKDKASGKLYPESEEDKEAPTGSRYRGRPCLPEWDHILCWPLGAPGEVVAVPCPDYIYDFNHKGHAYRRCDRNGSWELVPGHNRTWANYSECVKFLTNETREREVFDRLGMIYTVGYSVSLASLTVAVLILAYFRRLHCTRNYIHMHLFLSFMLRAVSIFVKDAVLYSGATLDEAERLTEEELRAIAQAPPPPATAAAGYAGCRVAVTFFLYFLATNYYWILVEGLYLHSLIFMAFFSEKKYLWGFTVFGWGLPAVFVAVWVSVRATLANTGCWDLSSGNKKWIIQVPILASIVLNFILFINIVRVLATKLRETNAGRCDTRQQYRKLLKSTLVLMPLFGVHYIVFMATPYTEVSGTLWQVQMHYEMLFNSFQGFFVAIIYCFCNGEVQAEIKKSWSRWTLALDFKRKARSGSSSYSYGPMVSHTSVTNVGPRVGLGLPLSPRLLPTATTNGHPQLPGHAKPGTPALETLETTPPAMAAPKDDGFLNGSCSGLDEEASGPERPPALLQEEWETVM

Biological target: Parathyroid hormone/parathyroid hormone-related peptide receptor (Homo sapiens) (UniProt Q03431)
Test: qHTS for PTHR1 Agonists: Primary Screen; note: nearly all actives have a fitted effect of over 55% in size
Details: HEK293 GP2 PTHR1 cells, GloSensor cAMP luminescence, 1 h; activation: at 115 µM (top of the series) unless noted; series mostly up to 115 µM
How it was run: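 HEK-293-derived GP2 cells expressing PTHR1 and a GloSensor cAMP reporter, 3,000/well, plated overnight, given luciferin plus IBMX (each 0.5 mM as added) for 1 h at 37 °C, then compound for 1 h at 37 °C. Luminescence was read after 15 min at room temperature.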
Potency is the fitted concentration of half-maximal effect.

SMILES	Potency	activation	outcome
Cc1cc(=O)cc(C)n1-c1ccc(Br)cc1	inconclusive: 126 µM [activator, single point]		
COc1ccc(CCN2CC(C(=O)NCCCn3nc(C)cc3C)CCC2=O)cc1 (configuration not stated)	inconclusive: 7.94 µM [activator, partial curve, poor fit]		
CC(=O)c1ccccc1NC(=O)CC1(CC(=O)O)CCCCC1	inconclusive: 70.8 µM [activator, partial curve, poor fit]		
c1ccc(-n2nnnc2NC2CCCCC2)cc1		inactive: -21% [at 57.5 µM]	
C=CCSc1nnc(-c2ccncc2)n1-c1ccc(OCC)cc1	inconclusive: 35.5 µM [activator, single point]		
O=C(NNC(=O)c1cccs1)c1ccc(F)cc1			inactive
COc1cnc(SCc2c(Cl)cccc2Cl)nc1Cl			inactive [at 57.5 µM]
COC(=O)c1c(C)[nH]c(C(=O)OCc2ccc(F)cc2)c1C			inactive [at 57.5 µM]
COc1cccc(CNC(=O)Cn2ncn3nc(-c4cccs4)cc3c2=O)c1		inactive: -35.8%	
CCOC(=O)Cn1nc(C)c(NC(=O)c2ccc(Cl)c([N+](=O)[O-])c2)c1C	inconclusive: 126 µM [activator, single point]		
CCn1c(=O)cc(OCC(=O)NCCCN2CCCC2=O)c2ccccc21	inconclusive: 2.82 µM [activator, full curve, poor fit]		
Cc1nc(-c2ccc(F)cc2)sc1CCNC(=O)Cc1ccc(F)cc1		inactive: -21.3%	
O=C(NNC(=O)c1c(O)c2ccccc2[nH]c1=O)c1ccccc1Br			inactive
OCC(O)C1OC(Nc2ccc(Cl)cc2)C(O)C1O (configuration not stated)	inconclusive: 126 µM [activator, single point]		
CCc1cc(=O)oc2c(C)c(OCC(=O)N3CCC(C(=O)O)CC3)ccc12		inactive: 18.9%	
O=C(CN1C(=O)NC2(CCc3ccccc32)C1=O)NCc1ccccc1Cl (configuration not stated)	inconclusive: 126 µM [activator, single point]		
COc1ccccc1CCN1CCCC(CN(C)C(=O)CCC(N)=O)C1 (configuration not stated)	inconclusive: 50.1 µM [activator, partial curve, poor fit]		
C#CCOCCOCCOCCNc1nc(N2CCN(C(=O)[C@H](C(C)C)n3cc(CCO)nn3)CC2)nc(N2CCN(C(=O)[C@H]([C@@H](C)CC)n3cc(CCCCN)nn3)CC2)n1	inconclusive: 31.6 µM [activator, single point]		
COCCNC(=O)c1ccccc1NC(=O)c1nsc2ccccc12		inactive: -7.97%	
CN(C)CCCNC(=O)/C(=C/c1ccc(-c2ccc([N+](=O)[O-])cc2)o1)NC(=O)c1ccccc1		inconclusive: 32.9% [activator]	
CCN1CCN(CC(=O)c2c(C)n(C)c3ccc(OC)cc23)CC1		inconclusive: 53.2% [activator]	
COc1ccc(N(C)C(=O)Cn2cc(S(=O)(=O)N3CCN(c4ccccc4F)CC3)c3ccccc3c2=O)c(OC)c1		inconclusive: -93.6% [activator]	
COc1cc(/C=N/n2cc(-c3ccccc3)[nH]c2=S)cc(OC)c1O		inactive: -47.1%	
COc1ccc2ccccc2c1CN1CCSCC1			inactive

Retrieved by structure from the entries so far (3):
SMILES	Potency	activation	outcome
CCOC(=O)Cn1nc(C)c(NC(=O)c2ccc(Cl)c([N+](=O)[O-])c2)c1C	inconclusive: 126 µM [activator, single point]		
COc1ccc(N(C)C(=O)Cn2cc(S(=O)(=O)N3CCN(c4ccccc4F)CC3)c3ccccc3c2=O)c(OC)c1		inconclusive: -93.6% [activator]	
c1ccc(-n2nnnc2NC2CCCCC2)cc1		inactive: -21% [at 57.5 µM]	

More structures.

SMILES	Potency	activation	outcome
COc1ccc(CSc2nnc(-c3ccncc3)n2N)cc1	inconclusive: 15.8 µM [activator, partial curve, poor fit]		
Cc1c(N(C)S(=O)(=O)c2ccc(Cl)c(C(=O)N3CCC(C(N)=O)CC3)c2)c(=O)n(-c2ccccc2)n1C	inconclusive: 100 µM [activator, single point]		
O=C(Nc1sc2c(c1C(=O)NCc1cccnc1)CCCC2)c1ccco1	inconclusive: 56.2 µM [activator, single point]		
OCCN1CCN(CCOc2ccccc2-c2ccccc2)CC1	inconclusive: 25.1 µM [activator, partial curve, poor fit]		
O=C(CN1CCOCCOCCOCCOCC1)Nc1ccccc1	inconclusive: 35.5 µM [activator, single point]		
O=C(CN1CCN(C(=O)C2CCC2)CC1)Nc1ccc(F)cc1		inconclusive: 38.4% [activator]	
OCc1cnc(SCc2ccccc2F)n1Cc1ccc(F)cc1		inactive: -19.7%	
CC1(C)Cc2ccccc2C(=NC(Cc2ccccc2)C(=O)O)N1 (configuration not stated)		inconclusive: 34.2% [activator]	
Cn1c(=O)[nH]c(=O)c2c1nc(Br)n2CCCO		inconclusive: 17.4% [activator] [at 57.5 µM]	
CCOc1ccc(N/C(C)=C/C(=O)c2ccc3c(c2)OCCO3)cc1		inactive: -24.7%	
Cc1ccc(-n2c(SCC(=O)O)nc3sc4c(c3c2=O)C(C)CCC4)cc1 (configuration not stated)		inconclusive: -43.6% [activator]	
Cc1cccc(C(=O)Nc2cc(NC(=O)c3cccs3)ccc2C)c1	inconclusive: 39.8 µM [activator, partial curve, poor fit]		
O=C(CN1CCNCC1)NCCSc1ccc(Cl)cc1	inconclusive: 22.4 µM [activator, single point]		
CCOc1cc(NC(=O)CCl)c(OCC)cc1NC(=O)CCl		inactive: -42.3%	
COc1cccc(CNC(=O)C(=O)NCC(c2cccs2)S(=O)(=O)c2ccccc2)c1 (configuration not stated)		inconclusive: -53.8% [activator]	
COc1ccc2nc3ccccc3[n+]([O-])c2c1	inconclusive: 141 µM [activator, single point]		
NC1=NN=C(N2N=C(c3ccccc3)CC2(O)C(F)(F)F)n2ncnc2C1 (configuration not stated)	inconclusive: 5.62 µM [activator, full curve, poor fit]		
COc1ccc(C(=O)NCc2nnc(SCC(=O)N3CCCC3)o2)cc1	inconclusive: 89.1 µM [activator, partial curve, poor fit]		
COc1ccc(N2CCN(C(CNS(C)(=O)=O)c3ccco3)CC2)cc1 (configuration not stated)	inconclusive: 39.8 µM [activator, partial curve, poor fit]		
Cc1c(N=C2C=C(Br)C(=O)C(Br)=C2)c(=O)n(-c2ccccc2)n1C		inactive: -25.3%	
CCOc1ccc(/C=C(\C#N)C(=O)c2c(C)[nH]c3ccccc23)cc1OC		inactive: -10.6%	
CC1(C)C2CCC(C2)C1(C)NC(=O)CNC1CCCCC1 (configuration not stated)	inconclusive: 126 µM [activator, single point]		
CCOC(=O)CC(=O)Nc1ccccc1C(=O)O	inconclusive: 35.5 µM [activator, partial curve, poor fit]		
CCn1c(=O)c2sccc2n2c(CCCC(=O)N3CCN(c4ccc(F)cc4)CC3)nnc12		inactive: -0.67%	

SMILES	Potency	activation	outcome
Cc1cc(C)c2c(c1)c(C)cc1nnc(SCC(=O)c3ccccc3)n12		inactive: -7.94%	
CC(C)(C)c1csc(NC(=O)c2ccccc2O)n1		inactive: -36.9%	
CCCn1c(SCC(=O)NCc2ccc3c(c2)OCO3)n[nH]c1=O	inconclusive: 15.8 µM [activator, full curve, poor fit]		
Cc1ccc(-n2nc3c4c(cccc4c2=O)-c2ccccc2-3)cc1	inconclusive: 39.8 µM [activator, single point]		
CCc1cc2c(cc3c(=O)n(CC(=O)NC(C)c4ccccc4)ncn32)s1 (configuration not stated)			inactive
CCOc1ccc(CCn2c3c(c(=O)[nH]c2=O)C(NC(=O)c2cccc(F)c2)(C(F)(F)F)C(=O)N3)cc1OCC (configuration not stated)			inactive
CC(C)(C)c1ccc(C(=O)CSc2ncn[nH]2)cc1	inconclusive: 35.5 µM [activator, partial curve, poor fit]		
COc1ccc(N2C(=O)c3ccccc3C2O)cc1 (configuration not stated)		inconclusive: 54% [activator]	
COc1cccc(CN(C)C(c2ccccc2)c2ccccc2)c1OC		inactive: -14.8%	
Cc1onc(C(=O)NC(C)c2ccccc2)c1[N+](=O)[O-] (configuration not stated)	inconclusive: 79.4 µM [activator, partial curve, poor fit]		
Cc1ccc(CNC(=O)CSc2nc3c(sc4ccccc43)c(=O)n2CCCC(=O)NCCO)cc1	inconclusive: 126 µM [activator, partial curve, poor fit]		
COCCNC(=O)c1cc2c(c(-c3cccc(C#Cc4ccc(OC)c(OC)c4)c3)n1)[C@H](CCO)N(S(=O)C(C)(C)C)C2 (some centres not stated)		inactive: -20%	
CN(Cc1cccc(F)c1)C(=O)c1cccc(S(=O)(=O)N2CCN(Cc3ccccc3)CC2)c1		inactive: -31.4%	
Cc1cc(=O)[nH]c2nnc(SCc3ccc(Cl)cc3Cl)n12		inconclusive: 7.94% [activator]	
CC(CCc1ccccc1)NCc1ccc(Cl)cc1Cl (configuration not stated)	inconclusive: 15.8 µM [activator, partial curve, poor fit]		
Cc1ccc(S(=O)(=O)N2[C@@H](c3cccc(Cl)c3)C(C(=O)OC(C)(C)C)=CC[C@H]2c2ccc(C(C)C)cc2)cc1		inconclusive: -52.3% [activator]	
O=C(NCC(c1ccco1)N1CCOCC1)c1ccccc1 (configuration not stated)		inconclusive: -9.45% [activator]	
COc1cc(/C=C/C(=O)OCC(=O)Nc2ccc(C)cc2[N+](=O)[O-])ccc1O	inconclusive: 126 µM [activator, single point]		
Cc1cccc(C(=O)N[C@H](C(=O)Nc2cc(S(=O)(=O)N3CCCCC3)ccc2C)C(C)C)c1			inactive
Cc1cc2c(=O)n(CC(=O)NCC(=O)Nc3ccc(C(C)C)cc3)cnc2s1	inconclusive: 31.6 µM [activator, single point]		
C/C(=N\NC(=S)Nc1c(C)cccc1C)c1ccc(O)cc1		inactive: -24.9%	
O=C(N/N=C/c1ccc([N+](=O)[O-])o1)c1sc2ccccc2c1Cl		inactive: -94.3%	
COc1ccc(-c2nc3c(c(SCC(=O)N4CCCCC4)n2)Cc2cc(C)ccc2O3)cc1	inconclusive: 158 µM [activator, single point]		
COc1ccc(NC(=O)C2CCN(C(=O)[C@@H]3Cc4ccccc4CN3)CC2)cc1		inconclusive: 45.3% [activator]	
